# Results as given in the supplement of paper PMC3334620.
# In all, about 33,000 sequences were measured (“E-score (-0.5 to 0.5)”: median about -0.0034, highest 2% from about 0.25 on). The list shows a part of the results.
# Target: T1, Yap3 (UniProt P38749)
# T1 sequence: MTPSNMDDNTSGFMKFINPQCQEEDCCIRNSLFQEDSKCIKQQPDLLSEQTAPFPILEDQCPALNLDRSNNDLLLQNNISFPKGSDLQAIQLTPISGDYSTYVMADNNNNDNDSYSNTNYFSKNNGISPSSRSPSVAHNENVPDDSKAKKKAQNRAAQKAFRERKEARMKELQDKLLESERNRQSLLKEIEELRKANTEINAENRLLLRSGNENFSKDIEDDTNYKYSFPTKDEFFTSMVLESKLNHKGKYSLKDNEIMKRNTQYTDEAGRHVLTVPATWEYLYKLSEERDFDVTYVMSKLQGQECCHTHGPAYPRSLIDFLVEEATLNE
# Assay: PBM E-score (8-mer binding enrichment) (E-score (-0.5 to 0.5)); higher = stronger / more preferred TF binding
# Details: protein concentration: 100 nM; construct: GST-full length
# In short: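 Yeast transcription factors carrying a GST tag, as full-length proteins or DNA-binding domains, were produced by PURExpress in vitro transcription/translation. About 100-200 nM protein was applied to universal all-10-mer Agilent arrays, double-stranded by primer extension on fresh or once-stripped slides. Bound protein was detected with fluorescent anti-GST, and scans were normalised with masliner. The Universal PBM Analysis Suite gave each ungapped eight-base word, pooled with its reverse complement, an E-score, a modified Wilcoxon-Mann-Whitney statistic.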
row,Sequence,PBM E-score
1,CCTCTTTA,-0.0595
2,GTAGTGTA,0.0151
3,ATGGACAT,0.0428
4,ATGCACTA,0.0636
5,GTTATTCA,0.193
6,CAAAATAC,0.207
7,CCAATTGA,0.0344
8,GCCCTCCC,-0.247
9,AGCGATAT,0.175
10,ATCACCTG,-0.00859
11,GACCCAAA,0.0385
12,TAAGTGAA,0.253
13,GGCAAGAC,-0.124
14,CGCCACCC,-0.125
15,ACCTCAAC,0.0764
16,CCATCAGA,-0.167
17,CAAAGAAC,0.12
18,GTATAGAA,0.132
19,CTGACGTA,0.0592
20,CTCGGTGA,-0.0423
21,AGGATCAC,0.0487
22,CCCTCAAG,-0.116
23,CTAGCGTC,-0.219
24,ACTGTATA,0.103
25,AGTGATCG,-0.0298

row,Sequence,PBM E-score
1,ATGAACGG,-0.0682
2,CGGTTCAG,-0.272
3,GGGTGAGA,-0.174
4,CAGAAATG,0.0761
5,ACAGCCCC,-0.2
6,GAGAGATA,0.175
7,CCTACAAG,-0.195
8,ATGATAGA,0.0408
9,CGACTCTA,-0.101
10,ACCAAACA,0.22
11,CCCTGACC,-0.167
12,CACCACAG,-0.0737
13,CCAGAAGA,-0.0758
14,CCTTTCAA,0.0643
15,ACGCGATG,0.0166
16,CTCCCGAC,-0.17
17,AAGGCTTC,-0.00648
18,GCGCAGAC,-0.123
19,CACCTATC,0.0783
20,TCGGTTCA,-0.121
21,CTACCGGA,-0.168
22,GGACAGTA,0.182
23,CTGCTTTA,0.251
24,CACCTGAA,0.136
25,ACAGTAAT,0.234

# Some of the entries so far, with bars between the fields.
row | Sequence | PBM E-score
1 | CCTCTTTA | -0.0595
2 | GTAGTGTA | 0.0151
3 | ATGGACAT | 0.0428
4 | ATGCACTA | 0.0636
5 | GTTATTCA | 0.193
6 | CAAAATAC | 0.207

# (next part)

row,Sequence,PBM E-score
1,TAAAATAA,0.0792
2,CGGACTTC,-0.19
3,GCTCGACC,-0.0732
4,AACGAGCG,0.0751
5,AAGTCGCG,0.146
6,ATTCTGCG,0.0918
7,GATGCTCA,-0.109
8,AATCTGGC,-0.179
9,GTCGACGA,-0.00621
10,CCCTGGTA,-0.275
11,ATCTGTAC,0.206
12,CATGAAAC,0.103
13,ACGGCGAA,0.0811
14,TACGTCCA,-0.0718
15,GGAGTGGA,-0.0979
16,CAACCTAA,0.0685
17,GAAAGGCA,0.049
18,CTGGTGCC,-0.256
19,CATTAAGG,0.0235
20,CGACACCG,-0.143
21,AGCTATGG,-0.145
22,AAATAACT,0.206
23,ATACCATA,0.241
24,CGTTGAGC,-0.0636
25,ACGCCCGT,0.115

row,Sequence,PBM E-score
1,TGGACGAA,0.0693
2,AGACAGCT,-0.154
3,AGTTAATA,0.264
4,AGGGTGAT,-0.0385
5,CGAATCGC,-0.0763
6,GCACCCGC,-0.139
7,CTCACCGC,-0.165
8,ACTGCACT,0.0255
9,CGCAAAAC,0.146
10,ATAGGTAA,0.0418
11,ACGCCTTC,-0.134
12,AGACCTCT,-0.201
13,CATGACCG,-0.199
14,CTTGAGAC,-0.104
15,CACGAATG,0.102
16,ATGCCCAT,-0.11
17,ACTGCACA,-0.00455
18,CATCGTCG,-0.156
19,ATCCCCGG,-0.223
20,CTCTTAAG,-0.104
21,AGTCGCCA,-0.253
22,CTTTGAGC,-0.209
23,CGAAGACC,0.00252
24,TCCTTCCA,-0.111
25,CATTATTC,0.185

# Retrieved one by one from the list above, four records:
row,Sequence,PBM E-score
18,CATCGTCG,-0.156
6,GCACCCGC,-0.139
10,ATAGGTAA,0.0418
8,ACTGCACT,0.0255

# Remaining list, next part:

row,Sequence,PBM E-score
1,ATCCTGCG,-0.201
2,ACACAAGG,-0.0193
3,ATAGGTCG,-0.00638
4,GGGAAGAA,-0.0383
5,CTTCTGAC,-0.155
6,CAAGCGCA,0.235
7,CCATAGGC,-0.207
8,ACGAGCTG,0.0939
9,TGCTCCAA,0.0755
10,ACATGAAC,0.0169
11,ATCACAGG,-0.151
12,CCCAGTCG,-0.112
13,ATGCTACG,0.0849
14,AAACGTAC,0.0703
15,GTATTCAC,0.113
16,TCTCGTAA,0.228
17,CCGTGCTA,-0.142
18,ACTCAGCC,-0.139
19,AATTTCTG,0.089
20,GAGCATAA,0.178
21,AAATTTAA,0.217
22,GTTCTGCA,0.0206
23,ATACGTAG,0.0583
24,ATGACAAT,0.196
25,CTCATAAC,0.0114

row,Sequence,PBM E-score
1,TCGCTACA,-0.242
2,ATGAATGC,0.0737
3,ACCGGCGT,-0.0117
4,TAAAGACA,0.109
5,CCACCAAC,0.0331
6,CAGGCTGA,-0.233
7,CGCCTCTC,-0.34
8,GAATGCTC,-0.0816
9,ACTTTTCT,0.099
10,ATGCTGCA,-0.0493
11,GCCCCCCA,-0.427
12,GATTGGCC,-0.145
13,AAACAGTT,-0.0243
14,CACACAAC,-0.00829
15,ACTGCCGA,0.0404
16,GCTACAGC,0.0268
17,AAACTTGA,0.0809
18,AGTAGCAT,-0.0143
19,ACGCACTC,-0.0814
20,AGTTGCAA,0.0821
21,AAGACTCA,-0.162
22,GGCGTAAC,-0.0835
23,AAATACTT,0.0794
24,ATGATACA,0.233
25,ACATACGC,0.0285

row,Sequence,PBM E-score
1,GGTAGATA,0.114
2,CGGTTATC,0.0497
3,ATAAACAG,0.18
4,TGTAAGAA,0.167
5,CAATCACG,0.0762
6,TAACTAGA,0.225
7,AATAATGG,0.329
8,AGAGACCA,-0.0356
9,AACGACTA,0.0584
10,CTTAGGTA,0.118
11,TCCGGCAA,-0.0144
12,CGAGGTAA,-0.0145
13,ACTGAATA,0.103
14,AACCCGCT,-0.0991
15,AAACCATG,0.0294
16,TGACGTCA,0.331
17,GTCCTAGA,-0.228
18,GAACACGC,0.0758
19,CTGCTGAC,0.136
20,CTAATCTA,0.00845
21,GAACTACC,0.0671
22,AGAACAGC,0.0757
